# Source: PubChem BioAssay AID1508600 (Functional Genomics Laboratory (NCATS/FGL), 2020)
# The campaign covered roughly 53,000 sequences. About 3,700 (7%) were called active.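 Rule for the calls: active = gene knockdowns whose robust z-score for IL-1 alpha signal is at least 2 or at most -2, so actives lie on both sides; inactive = the rest.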 The list shows a part of the results.
# Assay: Components of the Cytosolic LPS Sensing Pathway: Gene Identification via Genome-wide siRNA Screen;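 note: robust z of the log signal after scaling to non-targeting control siRNA wells of the plate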
# Conditions: RAW264.7 macrophages, IL-1a HTRF, actives lie on both sides, screened at 100 nM (by protocol), cells primed 5 h with Pam3CSK4 first
# Outline: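 IL-1a HTRF of supernatants after 24 hour LipidA transfection of Pam3CSK4-primed (5 hours) RAW264.7 cells, 48h post-siRNA transfection (100 nM). Scores: percent of plate negative-control median, then log-based robust z-score.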
row,Sequence,z-score
1,GGCCAUUUUUGAAAGCUAATT against Dcdc2a,inactive: -1.08
2,GGAGGUAGAUGAACUUUAATT against Syt13,inactive: 0.377
3,CCAAGUAGAUUGUACCUAUTT against Fuca1,inactive: 1.67
4,GGAUCCGUGAAUGUAGUCATT against Rapgef4,inactive: -0.793
5,GGUGAUGCUAAGAAGUUACTT against Rnf122,inactive: -1.57
6,GGAAAUCACUGGUUUUCAATT against Asah2,active: 2.88
7,GGACAUUCGGCUAUAGCACTT against P2ry2,inactive: -1.02
8,CCUCCAGAUAACAAAUGCATT against Dlx3,inactive: 0.335
9,CCAACUAAUCCCAUAUUCCTT against Tmem43,inactive: 0.0511
10,GGCCCACAAAAGGUAUGAATT against AW551984,inactive: 1.71
11,GCUCAGCUAUCAAAACUUUTT against Snx20,inactive: -0.703
12,GCCUUACCAACUUCAGUUATT against Rps27l,inactive: 0.263
13,GGACGAUUCUUUUAUUUGATT against Fam78b,inactive: -1.22
14,GGAAAGAUUGUACCAGUUGTT against Cmpk1,active: 2.58
15,GGUGGUGUUUGAAAAGUGUTT against Mst1,inactive: -0.571
16,GGUCAAGUACAAAAGAGAUTT against Nebl,inactive: -0.39
17,GCGAACUUUUACAUUUCGATT against Gmpr,inactive: 0.272
18,GGAGACCAUAAACAUAUUUTT against Drc3,inactive: -1.49
19,GGAAAAAGUGACAUUUUCUTT against AW551984,inactive: 1.32
20,GGAGAAUUACUCCUUUUUGTT against Med9,inactive: 0.928
21,CCAUAAUAGAGGCAAUUACTT against Wscd1,inactive: 0.302
22,GGUUUUACAUCUAUGGAGUTT against 4933417A18Rik,inactive: -0.449
23,CCUGAAGAGGAUGAUAUGGTT against Fam221a,inactive: 0.144
24,CGCACGAAGCUCUUUGUGUTT against Tmem106a,inactive: 0.348
25,GGUCCAAGCUUAAAUUUGUTT against Mrpl16,inactive: 1.05
26,GACCGGUCAAGUUUUUUCGTT against Pfn1,inactive: -0.164
27,GGAGUUGUGAAUUUCUCGUTT against Sri,inactive: -0.198

row,Sequence,z-score
1,GGAAAAAGGAGAGAAUGAATT against Ccdc38,inactive: -1.69
2,GGAGAAGCUGAAGACCAAGTT against Rpl35,inactive: -0.00694
3,GCGAGAUGUAGUAACAGAGTT against Adam15,inactive: 1.06
4,GCAUUGUGCUCAAAUCUGCTT against C1qtnf7,inactive: -0.168
5,GGAUUGAGGCUAAGUAGCGTT against Tnfrsf13b,inactive: 0.00112
6,GCAUCAUGUCAUUCUUUACTT against Fstl5,inactive: 0.00517
7,GCAAGCCAACGUGUCGGAATT against Prpf31,inactive: 1.38
8,GCUAAGGACACAAAAUCCATT against Slc38a10,inactive: 0.129
9,GGUGUUGAGACCAAUUAGCTT against Dqx1,inactive: -0.884
10,CGAAGCAAGAGCACUGCCUTT against Atp6v1h,inactive: 1.75
11,CGACAUGUAAAACUAUUGUTT against Cd300e,inactive: 0.864
12,GCUUUAUUGAUUCCACUAGTT against Zfp804a,inactive: -0.0417
13,GCGAACGGACAUCUCCUUCTT against Akr1b8,inactive: 1.03
14,GGCUUUUUUGCUAUCCUAUTT against Hoxc5,inactive: -0.623
15,CCUUUCACUAGCUAAGUGATT against Fbxl20,inactive: 0.716
16,GGUGUACUUUAUCUCACGATT against Olfr6,inactive: 1.1
17,GGAGAAGCAUGGCUAUAACTT against Rcor2,inactive: -0.393
18,GCAAGUCCUCUACCUUCUCTT against Vmn1r210,inactive: -1.65
19,GGCUAACAACAUCUUCUCCTT against Tlr7,inactive: -1.64
20,GGACAAGAAGAAGUCCAUUTT against Isl2,inactive: -0.127
21,CCUUUUCCGGUUAAAGCAGTT against Prmt3,inactive: 0.229
22,GCAAGAAUCGAUAUGAGAGTT against Cnmd,inactive: 0.561
23,GGCAAGUCUCAAAUUAUUUTT against D930030D11Rik,inactive: 0.255
24,GGAGAUUUGUCAGAACCUCTT against Grk2,inactive: 0.261
25,GGCGAUGGAAAGACUGCACTT against Hus1b,inactive: 0.311
26,GGUCAAAGGGAAACAAGUUTT against Creb3l4,active: -2.02

# Quoted from the entries so far for reference:
row,Sequence,z-score
10,CGAAGCAAGAGCACUGCCUTT against Atp6v1h,inactive: 1.75
11,CGACAUGUAAAACUAUUGUTT against Cd300e,inactive: 0.864
